# Experimental data taken from article PMC9761386.
# By UniProt entry, the sequences of proteins in these tests, tags left out. Residues count along the entry.
# UniProt Q9EP73, residues 19-290: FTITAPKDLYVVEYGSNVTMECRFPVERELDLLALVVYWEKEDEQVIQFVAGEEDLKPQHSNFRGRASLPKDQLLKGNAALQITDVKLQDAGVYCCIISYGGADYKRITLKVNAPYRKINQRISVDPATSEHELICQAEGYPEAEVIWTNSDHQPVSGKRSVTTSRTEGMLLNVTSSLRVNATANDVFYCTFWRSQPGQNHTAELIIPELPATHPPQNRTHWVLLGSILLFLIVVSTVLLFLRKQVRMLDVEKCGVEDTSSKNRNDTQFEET
# UniProt P42227: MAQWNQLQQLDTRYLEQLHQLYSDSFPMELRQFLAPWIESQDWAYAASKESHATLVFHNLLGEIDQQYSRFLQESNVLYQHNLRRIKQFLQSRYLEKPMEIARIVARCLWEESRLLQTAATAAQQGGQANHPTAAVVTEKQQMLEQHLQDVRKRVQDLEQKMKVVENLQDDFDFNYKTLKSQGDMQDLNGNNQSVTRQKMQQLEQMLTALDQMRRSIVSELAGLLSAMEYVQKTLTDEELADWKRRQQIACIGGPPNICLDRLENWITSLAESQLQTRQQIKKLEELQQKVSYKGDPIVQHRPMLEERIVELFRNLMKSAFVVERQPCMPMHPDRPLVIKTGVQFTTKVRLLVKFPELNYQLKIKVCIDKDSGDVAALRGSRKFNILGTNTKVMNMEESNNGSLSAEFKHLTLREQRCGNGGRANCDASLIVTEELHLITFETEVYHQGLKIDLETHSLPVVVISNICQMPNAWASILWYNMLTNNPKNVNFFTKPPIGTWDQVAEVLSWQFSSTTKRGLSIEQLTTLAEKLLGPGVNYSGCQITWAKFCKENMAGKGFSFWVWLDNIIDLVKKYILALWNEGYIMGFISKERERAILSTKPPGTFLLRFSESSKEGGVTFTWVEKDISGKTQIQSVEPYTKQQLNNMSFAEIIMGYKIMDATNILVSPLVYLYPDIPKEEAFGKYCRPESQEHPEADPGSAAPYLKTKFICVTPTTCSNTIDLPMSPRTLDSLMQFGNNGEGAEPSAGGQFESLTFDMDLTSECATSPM
# UniProt Q8VI36: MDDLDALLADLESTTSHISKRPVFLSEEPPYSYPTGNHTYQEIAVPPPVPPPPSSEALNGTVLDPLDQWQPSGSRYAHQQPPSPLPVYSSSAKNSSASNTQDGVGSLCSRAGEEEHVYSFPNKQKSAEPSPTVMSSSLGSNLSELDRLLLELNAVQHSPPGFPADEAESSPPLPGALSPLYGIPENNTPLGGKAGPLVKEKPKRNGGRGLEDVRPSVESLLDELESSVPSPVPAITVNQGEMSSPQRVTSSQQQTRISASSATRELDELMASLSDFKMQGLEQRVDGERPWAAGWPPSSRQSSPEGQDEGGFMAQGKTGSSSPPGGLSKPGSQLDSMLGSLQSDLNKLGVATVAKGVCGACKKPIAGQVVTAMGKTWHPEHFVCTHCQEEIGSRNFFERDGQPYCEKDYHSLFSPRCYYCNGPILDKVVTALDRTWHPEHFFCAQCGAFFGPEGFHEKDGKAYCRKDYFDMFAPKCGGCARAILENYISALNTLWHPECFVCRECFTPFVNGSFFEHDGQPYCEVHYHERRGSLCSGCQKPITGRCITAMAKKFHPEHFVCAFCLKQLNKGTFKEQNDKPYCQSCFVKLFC
# Results are given in words; binding and its absence hold for the method and conditions named. In cells and extracts the contact can be indirect. Some results given as binding are weak or reduced against the parent protein; the word gives no strength.
# Biological target: WT PD-L1 (programmed death ligand 1) tagged with GFP (mouse) (UniProt Q9EP73)
# Experiment: co-IP; PD-L1-GFP precipitated from SVEC4-10 lysate with GST-tagged anti-GFP nanobody on GST beads, Western blot; cells untreated or treated with sodium fluoride (1 mM), sodium vanadate (0.5 mM), TNFα (100 ng/ml), IFNα (500 U/ml) or both cytokines, 30 min or overnight
row,Substance,binding
1,Signal transducer and activator of transcription 3 (from UniProt P42227 1-770),binds
2,STAT3 phosphorylated on Tyr705 (from UniProt P42227 1-770),binds
3,STAT3 phosphorylated on Ser727 (from UniProt P42227 1-770),binds
4,Paxillin (from UniProt Q8VI36 1-591),binds
